For test [1], the target named is FIC-1_(134-508) (C. elegans) (UniProt Q23544). The experiment in a line: SEC; size exclusion chromatogram of purified protein, elution volumes of standards marked; column and buffer of this run not stated; both purified.
Test [2] has as its target FIC-1_(134-508) E274G/I298D (C. elegans) (UniProt Q23544). The test is described as above.

Residue numbers refer to the chain shown, from its start. Names and notes keep the numbering of the source. Results are given in words; binding and its absence hold for the method and conditions named. Some entries that bind do so weakly or less than the wild type.

B1: FIC-1_(134-508) (domain or fragment, C. elegans, UniProt Q23544 134-508, looked up)
chain: DEKRENDPAKVKEAILAAKAAGRSRKDGNLERAMTIMEHAMALAPTNPQILIEMGQIREMHNELVEADQCYVKALAYDPGNSEALVLRARTTPLVSAIDRKMLRSVHDLRDEFNHLQHSTALRRMMRETYFLYVYHTVAIEGNTLSLGQTRAILESGMVIPGKSIREHNEVIGMDAALRFLNCSLLSKEHDEISIDDILEMHRRVLGNADPVEAGRIRTTQVYVGRFTPVSPEYVMEQLKDIVDWLNDESTLTIDPIERAAIAHYKLVLVHPFTDGNGRTARLLLNLIMMRSGFPPVILPVETRAEYYASLHVANLGDLRPFVRYVAKHSEASIQRYIGAMKTSSDNILNSGDSKLTPEESEVSEKIEAECRAGN
notes: C. elegans Fic protein FIC-1, residues 134-508; transmembrane helix and membrane proximal domain excluded; also called FIC-1 wild type; FIC-1 wildtype (wt); source: E. coli LOBSTR-RIL(DE3), purified (Ni-Sepharose, size-exclusion chromatography); not shown: His6, N-terminal, kept
Consider B1, for which, in test [1], the binding result is recorded as “binds”.

B2: FIC-1_(134-508) E274G/I298D (domain or fragment, C. elegans, UniProt Q23544 134-508, looked up)
chain: B1 chain with E141G, I165D
Regarding B2, the binding entry in test [2] is listed as “no binding”.

For the origin of these results see publication PMC4854385, “The Caenorhabditis elegans Protein FIC-1 Is an AMPylase That Covalently Modifies Heat-Shock 70 Family Proteins, Translation Elongation Factors and Histones” (PLoS Genetics, 2016).
